Experimental data taken from the supplement of paper PMC5949888.
Most values lie at the floor of the assay. Slopes are relative: functional sequences can read slightly below zero.

test system: Saccharomyces cerevisiae PS128 hsf1 delta, HSF1(1-493) fusion; experiment: growth estimate (transactivation domain function in HSF1 fusion, heat-shock survival) (a.u. (slope of normalised read count over time)); higher = stronger growth at 37°C, i.e. more transactivation activity; details: library: random library

Substance | growth estimate
VFLPTTSENVLRTVSIDNVR | < -0.25
PVVQAAHMCWPFPLGTGSLG | < -0.25
FLSIEDLGGEQRP | < -0.25
LYAVRQPKGISSLCLQERYN | < -0.25
GATFLKTFSGLQLLTTSCGV | < -0.25
ERGI | < -0.25
QRTGNVSLTP | < -0.25
ECSDATFISCLRRLISIHVR | < -0.25
ISKAIVAHHLGRQYRNISVG | < -0.25
RRDGTRLAGT | < -0.25
DVDYRPGQGSPTMSVRGPSP | < -0.25
TRSRMVLTFGEVDVVDLTNG | < -0.25
YREAVKGGTFLPCWRVAPKP | < -0.25
SCLLLPTCVDV | < -0.25
TSS | < -0.25
ISLGGERGVDLSNALQIGTA | < -0.25
DVRVVGVLRRRRNGIRTLYL | < -0.25
ELVGGGWLRRASSKLAGSGY | < -0.25
PVFSVSECTLWRLGFSHPSN | -0.231
YSQTAWNSLFILRL | < -0.25
DMPDFDCVVPTDE | < -0.25
QMNWESEPIIL | < -0.25
HDGAVRQSFRVRR | < -0.25
LFSWTTR | < -0.25

Part of the list above in a different format.
ELVGGGWLRRASSKLAGSGY
  growth estimate = < -0.25
PVFSVSECTLWRLGFSHPSN
  growth estimate = -0.231
YSQTAWNSLFILRL
  growth estimate = < -0.25
DMPDFDCVVPTDE
  growth estimate = < -0.25

Further results

Substance | growth estimate
LVLSYSVSTLSEGSIEGVRS | -0.203
TIGVEGHAFHTRLTGVFLLT | < -0.25
PDGSSAQTYYANVDPATSLA | < -0.25
LRLIRVRKWAR | < -0.25
LVYVPGRYAFVLRLTASSTH | < -0.25
VGSM | < -0.25
QLMGG | < -0.25
VKRTVRCSGLNFTLQVQNPG | < -0.25
YSTLSDRKCVAHRDWAKLCL | < -0.25
ALEAGNEGISYYGLQSRSRC | < -0.25
ALSRPPRNVRR | < -0.25
LVRV | < -0.25
PTEYSLRNVRYQEKLSPV | < -0.25
FLARTRRGLPRWPGSEEVKL | < -0.25
FLCRVD | < -0.25
LCSLK | < -0.25
LRSRLRGPHQCPGLTFWIVS | < -0.25
LNPSRAWFIAGMVIFWLTPR | < -0.25
GEWVPRGAWHSNCLAHSSLI | < -0.25
YWFSSRSASVLWWLMITWTI | < -0.25
HYCLAGADGRSMYRAPLTRR | < -0.25
PSLMG | < -0.25
FCRRVVSHGTRERQT | < -0.25
SRLEHRKLFVPLSVHECFRR | < -0.25

Substance | growth estimate
TQQRHFGLSSTESTTFTLRV | < -0.25
DKVISPHFSRDCRLTYTEEC | < -0.25
IPAKTGIGLDDYSRRPDLLP | < -0.25
RKSTS | < -0.25
FRLPQVAQ | < -0.25
VPFSGPQLDVTFQL | < -0.25
LTLMECLQ | < -0.25
NHHLQCFDEKPRSVRAEGCS | < -0.25
YKWYKRDNGFVVQPRMCVVA | < -0.25
ITVPYKIAAKTVKRYVRFSL | < -0.25
QAV | < -0.25
ADVSFP | < -0.25
PNYVDPLCFSTGRDAPSASA | < -0.25
RQTAAPCRFSPAKESRPICQ | < -0.25
KLNCIVGFIVFHATNKSVSS | < -0.25
RYCRQGFCTRV | < -0.25
LIFVPGRIVSPRITHGIPFY | < -0.25
PNLRTLRRVGGP | < -0.25
DGLTTQLTGWFPVALARTIL | < -0.25
AGSPGIIVQNGLAVRSLPWA | < -0.25
MAPAVPFTRLVVMVAAAESL | < -0.25
SEPPSHAPCHFVLINRACAS | < -0.25
TLCDMLVRGRCSGGSLQLIV | -0.243
SLQSI | -0.182

Part of the list above, in markdown.

| Substance | growth estimate |
| --- | --- |
| SEPPSHAPCHFVLINRACAS | < -0.25 |
| TLCDMLVRGRCSGGSLQLIV | -0.243 |
| SLQSI | -0.182 |

Continuation:

Substance | growth estimate
LVTKEIAALLGRRFIPSAWA | < -0.25
SSYDSRWFCCYSSRVGLARP | < -0.25
RMHTLPP | -0.245
SRSQRLLRPGS | -0.245
GRVEIARGV | < -0.25
MTNCRRCAKVGII | < -0.25
LAVTRRIYHLTIVSNRIGH | < -0.25
FVNLLWLATSTRRVKFLYRL | < -0.25
IKGLMVRSNEYCFYCANTFP | < -0.25
ALSWYVTLSRAIMQRLGTCR | < -0.25
HRGSAVQAERLKTPNAGSAQ | -0.246
RTKLRISGLQNPNRSRCLIP | -0.246
CFQLRGCRVANARLTSRLSV | < -0.25
IANRSGTDSWRFGPSARAAN | < -0.25
LGSYERTGVLLKTRVVHKRV | < -0.25
RGGGLSPRSGLFSPGTSVQ | < -0.25
HTDGSTS | < -0.25
WGVTRVLRVGSFHVIWYFTG | < -0.25
PSYGKVPTKEAGRGDVMSPR | < -0.25
PTAP | < -0.25
AHCRTDVRAHLVCFTRSK | < -0.25
ALSIPIRWKDLGSETSSRNF | < -0.25
REFK | < -0.25
RLRFCVAVLRNPGVSPSARG | < -0.25

Substance | growth estimate
DKVNKRSMKLCSSWLAP | < -0.25
EGRRRVFGLAWLVASSGTRS | < -0.25
VNNTAQLGVQVCDQDFWGI | < -0.25
TLIVGQRGKGPALQYYVGRQ | < -0.25
TVRFFSSAYNG | < -0.25
DFARKG | < -0.25
ISIRVRH | < -0.25
ALRGQFCEALLMGFRTF | < -0.25
RITRGTIVD | < -0.25
RRSGFQRTIGIMQPFLAGQE | < -0.25
VLDSNHQGVDPPNAMSSVGS | < -0.25
QGEQ | < -0.25
RSN | < -0.25
YMRKVVRAISHWNRPLESAE | < -0.25
LCPVFPG | < -0.25
AAP | < -0.25
HYRAFYRETAIAIALVCSGS | < -0.25
ARLQRYRLWHKSTAVSNP | < -0.25
GFGMSQ | < -0.25
WDSNIRTANGYHVTAQHVVL | < -0.25
WWADS | -0.237
GSSEARRTGVG | < -0.25
DPVTRSTRRNRFLGLGSSCI | < -0.25
FHLPLSFSRSGPTRKPAGGE | < -0.25

Substance | growth estimate
RDNPSMKYL | < -0.25
DSNL | < -0.25
HPRDHEAPTQCL | < -0.25
SKPRAGYCLLQQDRSPPFGA | < -0.25
TVLGSCRPGNRW | < -0.25
KVCTLLRSLVTERVDL | < -0.25
GRRDYGVPANCDVRQTGASK | < -0.25
GGTSCGFLTQ | < -0.25
PPSAQQRHWTF | < -0.25
RLAVAHRDTVEPIMHSLVGS | < -0.25
LLRNPAHGFFPTQTDANRGR | < -0.25
RRGS | < -0.25
WVVDLKADIPSSNVPSSVGP | < -0.25
HIYSDKQNRGDRG | < -0.25
ISPGRGIASPLTLQVFAEPM | < -0.25
LRSTIYPDEFHSRLDRPTSG | < -0.25
HSSGGTLIGEALPVTLADRR | -0.245
CGFKKVFRRNASSIQRVIG | < -0.25
VDLDCRITRVRHPGTTY | < -0.25
VRCYERMGNRSTLWHMGQTR | < -0.25
YYGAGPALYYGNYRSRVVSS | < -0.25
SSLEERWLAHPRQGSLGPC | < -0.25
